Experimental data reported in article PMC11240878, “Synthesis, enzyme inhibition assay, and molecular modeling study of novel pyrazolines linked to 4-methylsulfonylphenyl scaffold: antitumor activity and cell cycle analysis” (RSC Advances, 2024).

Tests used:
in vitro = settings: human
Method: A normal fibroblast-like fetal lung cell line (WI-38) was used to further investigate the therapeutic safety of the newly synthesized hybrids and evaluate their selective cytotoxicity toward normal and tumor cells.[33,77]
(§1) The antitumor experiment was conducted on 59 human tumor cell lines derived from nine different human tissues, following the procedure of the Drug Evaluation Branch at the NCI, Bethesda, MD.[33]

leukemia HL-60 = test: cells; settings: Homo sapiens, HL-60, 48 h, read-out: In vitro cytotoxicity IC50
Method: as §1

MDA-MB-231 = test: cells; settings: Homo sapiens, MDA-MB-231, 48 h, read-out: In vitro cytotoxicity IC50
Method: as §1

[1] = system: breast adenocarcinoma MCF-7; test: cells; settings: Homo sapiens, MCF7, 48 h, read-out: In vitro cytotoxicity IC50

Compound: CN[C@@H]1C[C@H]2O[C@@](C)([C@@H]1OC)n1c3ccccc3c3c4c(c5c6ccccc6n2c5c31)C(=O)NC4 [Staurosporine, reference compound]
- IC50 (in vitro): 20.2 ± 0.9 µM
- IC50 (leukemia HL-60): 5.19 ± 0.23 µM
- IC50 (MDA-MB-231): 5.81 ± 0.26 µM
- IC50 [1]: 3.84 ± 0.17 µM
